# Results from the supplement of paper PMC8728848.
# The other results are listed elsewhere or left out.
# B1: Blon0732mut (Bifidobacterium longum) (protein)
# chain: MPTSEHKADDATRHLTLIPAPVTLEYTHGTALIGPLVTIEDADQSWETLPIEQLSDELRHRYGVTVLRRRTHGTVISLGLDSRLAHDEYTLDVSESEGIRVRGGGESGLRYGLQTLRQIIGQTSRAIPCLHIQDKPAFAVRAYSLDVTRGRVPTMEFLTWFVDQLALYKYNQFQLYVEHAFAFVELSEAWRGTDPLTAADITYLDEYCARRGIELVPSLATFGHMYMNLRTREHRGLGEFPEDADRPFSFIERMEHHTLNAADPKAHDFASRLIEEYAPLFRSKSFNIGGNETFDLGRGRSAQDAPEAGRDELYAGFVRDLCETLARHGRQPMLWADIALESPRTMDLLPGDITMLNWMYEPQIDESKIQTIATQGRRQFVCPAVRAWSRFFPDYAGAWLNTYHMALAGTKYDAEGMVVTDWGDYGHVNDPRLSVPGLCYGAQNAWNPIEIDAHEMNRRISALVYGDESGRIMDCLARIDSDGVSFPWDLAVQVLELEYGSGTGALNMDVAACMERSSGGKLTLDRTLGCDDARRRMLQWNRERIERRRDCDQVLRDCGDAFAGLDKGGLTAEFLSVMLDGQRLFNELGEELLALADGKDVGSGANRLAADLELWFERYRAQWLSVGRHAELARIAHVVWSLADILRRGAL
# Key:
# Assay in all cases: glycan array binding signal (z-score within array); higher = stronger binding
# Details in all cases: glycan notation: IUPAC condensed, linker removed
# Neu5Ac(a2-8)Neu5Ac = biological target: Neu5Ac(a2-8)Neu5Ac
# In short: (§1)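 Glycan array binding is given as a within-array Z-score, which can be read as non-binding when negative. The arrays, 3228 of them, came from the Consortium for Functional Glycomics database and were retained only where the protein sequence was available. Z-scores were averaged across arrays of the same protein sequence at different concentrations or buffers and across linkers.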
# [1] = biological target: Neu5Ac(a2-8)Neu5Ac(a2-3)Gal(b1-3)GalNAc(b1-4)[Neu5Ac(a2-3)]Gal(b1-4)Glc
# In short: as §1
# [2] = biological target: Neu5Ac(a2-8)Neu5Ac(a2-3)Gal(b1-3)GalNAc(b1-4)[Neu5Ac(a2-8)Neu5Ac(a2-3)]Gal(b1-4)Glc
# In short: as §1
# [3] = biological target: Neu5Ac(a2-8)Neu5Ac(a2-3)Gal(b1-4)Glc
# In short: as §1
# [4] = biological target: Neu5Ac(a2-8)Neu5Ac(a2-3)Gal(b1-4)GlcNAc
# In short: as §1
# [5] = biological target: Neu5Ac(a2-8)Neu5Ac(a2-3)[Gal(b1-3)GalNAc(b1-4)]Gal(b1-4)Glc
# In short: as §1
# [6] = biological target: Neu5Ac(a2-8)Neu5Ac(a2-3)[GalNAc(b1-4)]Gal(b1-4)Glc
# In short: as §1
# [7] = biological target: Neu5Ac(a2-8)Neu5Ac(a2-8)Neu5Ac
# In short: as §1
# [8] = biological target: Neu5Ac(a2-8)Neu5Ac(a2-8)Neu5Ac(a2-3)Gal(b1-4)Glc
# In short: as §1
# [9] = biological target: Neu5Ac(a2-8)Neu5Ac(a2-8)Neu5Ac(a2-3)[Gal(b1-3)GalNAc(b1-4)]Gal(b1-4)Glc
# In short: as §1
# [10] = biological target: Neu5Ac(a2-8)Neu5Ac(a2-8)Neu5Ac(a2-3)[GalNAc(b1-4)]Gal(b1-4)Glc
# In short: as §1
# [11] = biological target: Neu5Ac(a2-8)Neu5Ac(a2-8)Neu5Ac(a2-8)Neu5Ac(a2-3)[GalNAc(b1-4)]Gal(b1-4)Glc
# In short: as §1
# [12] = biological target: Neu5Ac(a2-8)Neu5Gc(a2-3)Gal(b1-4)GlcNAc
# In short: as §1
# [13] = biological target: Neu5Ac(b2-6)Gal(b1-4)GlcNAc
# In short: as §1
# Neu5Ac(b2-6)GalNAc = biological target: Neu5Ac(b2-6)GalNAc
# In short: as §1
# [14] = biological target: Neu5Ac9Ac(a2-3)Gal(b1-4)GlcNAc
# In short: as §1
# [15] = biological target: Neu5Ac9Ac(a2-6)Gal(b1-4)GlcNAc
# In short: as §1
# [16] = biological target: Neu5Gc(a2-3)Gal(b1-3)GlcNAc
# In short: as §1
# [17] = biological target: Neu5Gc(a2-3)Gal(b1-3)[Fuc(a1-4)]GlcNAc
# In short: as §1
# Neu5Gc(a2-3)Gal(b1-4)Glc = biological target: Neu5Gc(a2-3)Gal(b1-4)Glc
# In short: as §1
# [18] = biological target: Neu5Gc(a2-3)Gal(b1-4)GlcNAc
# In short: as §1
# [19] = biological target: Neu5Gc(a2-3)Gal(b1-4)GlcNAc(b1-3)Gal(b1-4)GlcNAc(b1-2)Man(a1-3)[Neu5Gc(a2-3)Gal(b1-4)GlcNAc(b1-3)Gal(b1-4)GlcNAc(b1-2)Man(a1-6)]Man(b1-4)GlcNAc(b1-4)GlcNAc
# In short: as §1
# [20] = biological target: Neu5Gc(a2-3)Gal(b1-4)[Fuc(a1-3)]GlcNAc
# In short: as §1
# [21] = biological target: Neu5Gc(a2-6)Gal(b1-4)GlcNAc
# In short: as §1
# Neu5Gc(a2-6)GalNAc = biological target: Neu5Gc(a2-6)GalNAc
# In short: as §1
# [22] = biological target: Neu5Gc(a2-8)Neu5Ac(a2-3)Gal(b1-4)GlcNAc
# In short: as §1
# [23] = biological target: Neu5Gc(a2-8)Neu5Gc(a2-3)Gal(b1-4)GlcNAc
# In short: as §1
# [24] = biological target: Neu5Gc(a2-8)Neu5Gc(a2-3)Gal(b1-4)GlcNAc(b1-3)Gal(b1-4)GlcNAc
# In short: as §1
# [25] = biological target: Neu5Gc(a2-8)Neu5Gc(a2-6)Gal(b1-4)GlcNAc
# In short: as §1
# [26] = biological target: Neu5Gc(b2-6)Gal(b1-4)GlcNAc
# In short: as §1
binder,measurement,setting,value
B1,glycan array binding signal (z-score),Neu5Ac(a2-8)Neu5Ac,0.726
same,glycan array binding signal (z-score),[1],-0.875
same,glycan array binding signal (z-score),[2],1.11
same,glycan array binding signal (z-score),[3],-0.015
same,glycan array binding signal (z-score),[4],-0.577
same,glycan array binding signal (z-score),[5],-0.767
same,glycan array binding signal (z-score),[6],0.328
same,glycan array binding signal (z-score),[7],0.235
same,glycan array binding signal (z-score),[8],-0.167
same,glycan array binding signal (z-score),[9],0.27
same,glycan array binding signal (z-score),[10],-0.916
same,glycan array binding signal (z-score),[11],-0.743
same,glycan array binding signal (z-score),[12],-0.49
same,glycan array binding signal (z-score),[13],-1.08
same,glycan array binding signal (z-score),Neu5Ac(b2-6)GalNAc,-1.24
same,glycan array binding signal (z-score),[14],-0.753
same,glycan array binding signal (z-score),[15],-0.165
same,glycan array binding signal (z-score),[16],-0.667
same,glycan array binding signal (z-score),[17],-0.316
same,glycan array binding signal (z-score),Neu5Gc(a2-3)Gal(b1-4)Glc,2.58
same,glycan array binding signal (z-score),[18],-1.19
same,glycan array binding signal (z-score),[19],-0.334
same,glycan array binding signal (z-score),[20],-0.603
same,glycan array binding signal (z-score),[21],0.213
same,glycan array binding signal (z-score),Neu5Gc(a2-6)GalNAc,-0.617
same,glycan array binding signal (z-score),[22],-0.558
same,glycan array binding signal (z-score),[23],-0.813
same,glycan array binding signal (z-score),[24],-0.866
same,glycan array binding signal (z-score),[25],-0.874
same,glycan array binding signal (z-score),[26],-0.096

# Two entries drawn at random from the list so far:
binder,measurement,setting,value
B1,glycan array binding signal (z-score),[14],-0.753
same,glycan array binding signal (z-score),[21],0.213
